Test [1] deals with GST-tagged FAM114A2 (produced in bacteria) (human) (UniProt Q9NRY5). The experiment in a line: affinity purification with mass spectrometry; GST-tagged FAM114A1 or FAM114A2 from bacteria on glutathione-Sepharose beads; precleared HEK293T cell lysate, 4°C 1 h, lysis buffer 50 mM Tris-HCl pH 7.4, 150 mM NaCl, 1 mM EDTA, 0.5% Triton X-100; eluted with 1.5 M NaCl; compared with GST alone, three biological replicates; only the target ….

Chains of the proteins cited; added tags and fusions are not shown.
UniProt Q9NRY5: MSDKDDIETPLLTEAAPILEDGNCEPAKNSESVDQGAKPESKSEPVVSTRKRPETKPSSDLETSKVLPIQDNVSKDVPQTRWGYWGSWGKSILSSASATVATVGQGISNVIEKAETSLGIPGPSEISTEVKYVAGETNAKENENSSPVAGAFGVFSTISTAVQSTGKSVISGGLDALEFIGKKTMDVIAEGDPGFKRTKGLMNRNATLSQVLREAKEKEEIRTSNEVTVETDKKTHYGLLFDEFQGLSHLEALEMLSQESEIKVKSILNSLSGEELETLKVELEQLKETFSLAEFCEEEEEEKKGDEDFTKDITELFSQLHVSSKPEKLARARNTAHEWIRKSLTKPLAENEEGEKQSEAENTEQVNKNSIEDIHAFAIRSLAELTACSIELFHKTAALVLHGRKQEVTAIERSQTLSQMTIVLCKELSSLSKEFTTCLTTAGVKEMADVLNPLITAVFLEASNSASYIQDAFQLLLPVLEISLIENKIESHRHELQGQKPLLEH
UniProt Q8IWE2: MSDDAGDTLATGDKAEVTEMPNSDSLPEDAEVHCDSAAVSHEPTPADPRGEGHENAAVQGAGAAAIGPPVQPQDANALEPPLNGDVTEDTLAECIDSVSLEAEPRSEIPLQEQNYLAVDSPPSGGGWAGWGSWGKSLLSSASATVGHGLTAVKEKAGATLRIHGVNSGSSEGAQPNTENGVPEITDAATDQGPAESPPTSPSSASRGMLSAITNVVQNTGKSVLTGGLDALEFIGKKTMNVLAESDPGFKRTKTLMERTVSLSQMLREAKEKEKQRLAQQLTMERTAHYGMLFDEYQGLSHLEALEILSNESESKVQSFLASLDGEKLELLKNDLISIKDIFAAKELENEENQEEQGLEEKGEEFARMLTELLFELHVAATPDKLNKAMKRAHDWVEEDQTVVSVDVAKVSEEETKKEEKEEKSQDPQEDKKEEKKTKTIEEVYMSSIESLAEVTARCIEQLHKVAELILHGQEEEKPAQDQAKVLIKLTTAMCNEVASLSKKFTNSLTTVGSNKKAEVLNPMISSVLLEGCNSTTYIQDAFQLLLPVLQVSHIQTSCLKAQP
UniProt Q9VQ93: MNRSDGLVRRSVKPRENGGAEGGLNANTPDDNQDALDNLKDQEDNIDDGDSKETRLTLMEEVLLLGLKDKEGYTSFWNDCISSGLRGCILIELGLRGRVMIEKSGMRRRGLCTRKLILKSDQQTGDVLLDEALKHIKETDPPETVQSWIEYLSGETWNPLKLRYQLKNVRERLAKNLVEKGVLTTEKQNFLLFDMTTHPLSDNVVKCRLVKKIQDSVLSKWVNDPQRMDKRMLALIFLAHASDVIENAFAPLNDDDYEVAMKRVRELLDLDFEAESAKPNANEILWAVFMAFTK
UniProt Q10471: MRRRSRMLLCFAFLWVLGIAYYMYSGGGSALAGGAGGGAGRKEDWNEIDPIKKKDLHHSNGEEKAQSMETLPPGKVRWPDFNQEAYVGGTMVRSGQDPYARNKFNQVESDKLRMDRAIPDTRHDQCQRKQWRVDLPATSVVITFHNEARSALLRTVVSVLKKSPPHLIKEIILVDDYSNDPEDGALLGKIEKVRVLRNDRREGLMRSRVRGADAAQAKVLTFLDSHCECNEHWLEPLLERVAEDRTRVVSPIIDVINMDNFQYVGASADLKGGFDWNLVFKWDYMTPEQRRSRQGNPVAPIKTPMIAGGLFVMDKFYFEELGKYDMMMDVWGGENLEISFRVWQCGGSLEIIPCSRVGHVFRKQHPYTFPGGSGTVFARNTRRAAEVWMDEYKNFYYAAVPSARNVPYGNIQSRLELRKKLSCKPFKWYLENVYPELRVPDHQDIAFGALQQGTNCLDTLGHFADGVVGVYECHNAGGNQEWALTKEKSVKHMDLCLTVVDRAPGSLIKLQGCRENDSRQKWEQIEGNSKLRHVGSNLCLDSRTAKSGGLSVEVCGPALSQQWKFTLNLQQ
UniProt P61019: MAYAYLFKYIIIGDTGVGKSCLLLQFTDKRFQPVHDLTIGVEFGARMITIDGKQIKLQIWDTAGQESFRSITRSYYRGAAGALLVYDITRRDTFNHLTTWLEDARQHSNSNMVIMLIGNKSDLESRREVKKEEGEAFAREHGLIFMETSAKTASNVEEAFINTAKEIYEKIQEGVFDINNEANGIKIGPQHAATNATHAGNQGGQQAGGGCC
UniProt Q8WUD1: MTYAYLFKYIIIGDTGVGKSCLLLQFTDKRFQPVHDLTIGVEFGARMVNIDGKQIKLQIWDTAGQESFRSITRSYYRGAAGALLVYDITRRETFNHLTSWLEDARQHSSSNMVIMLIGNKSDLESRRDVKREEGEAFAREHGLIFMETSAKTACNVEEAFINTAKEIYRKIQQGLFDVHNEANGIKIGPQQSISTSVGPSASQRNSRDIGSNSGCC

Test [2] has as its target GST-tagged FAM114A1 (produced in bacteria) (human) (UniProt Q8IWE2). Described as above.
The target of test [3] is GST-tagged CG9590 (Drosophila FAM114A) (Drosophila) (UniProt Q9VF39). Nature of the test: affinity purification with mass spectrometry; GST fusions (CG9590, CG9590 W24A W27A, Sauron) from bacteria on glutathione-Sepharose beads; precleared S2 cell lysate, 4°C 1 h, lysis buffer 50 mM Tris-HCl pH 7.4, 150 mM NaCl, 1 mM EDTA, 0.5% Triton X-100; eluted with 1.5 M NaCl; compared with GST alone or with each other, three biological replicates; only the target purified.

Test [4] addresses GST-tagged Sauron (Drosophila GOLPH3) (Drosophila) (UniProt Q9VQ93). The description is as above.

These are yes or no findings as the source states them, for the method shown. In cells and extracts the contact can be indirect. These calls come from enrichment with a bait or labelling near it, and not all partners need be listed. For some of these results: A no says only that the protein was not detected with the bait.

Six molecules from article PMC11441981 can be followed below.

Take “GALNT2 (endogenous) (from UniProt Q10471 1-571) (enzyme)”: in test [1], the binding result is on record as “binds”.
“METTL26 (C16orf13) (from UniProt Q96S19 1-204)”: the binding entry in test [2] and in test [1] was “binds” each time.
On to Rab2A (from UniProt P61019 1-212), for which the binding entry in test [2] and in test [1] was “binds” throughout.
Turning to Rab2B (from UniProt Q8WUD1 1-216), the binding result in test [2] and in test [1] was “binds” in each case.

B1: CG18661 (Drosophila ortholog of METTL26/C16orf13) (protein, UniProt Q9VLF6 1-222)
chain: MSLTKRLLHIHPRCSFSKRSHPSADRNSQPISEALLSQVDKTTENLQLLEIASGSGQHAGFLAPLLPNITFQPTEYERNQFGSIAAYAGDCPTRNIRPPFHVDITRDPGDWEAPPAPASYDYMFNSNMMHISPWSCSIGLFRAAGQLLKKGGRMFTYGPYAQDGILVPQSNVDFDRSLRQRDASWGVRDIKDLKVLAAENGLQLEKLVKMPSNNKFLTWLKL
As to B1, the binding result in test [3] and in test [4] was “no binding” in each case.

B2: Vap33 (protein, UniProt Q9W4N8 1-269)
chain: MSKSLFDLPLTIEPEHELRFVGPFTRPVVTIMTLRNNSALPLVFKIKTTAPKRYCVRPNIGKIIPFRSTQVEICLQPFVYDQQEKNKHKFMVQSVLAPMDADLSDLNKLWKDLEPEQLMDAKLKCVFEMPTAEANAENTSGGGAVGGGTGAAGGGSAGANTSSASAEALESKPKLSSEDKFKPSNLLETSESLDLLSGEIKALRECNIELRRENLHLKDQITRFRSSPAVKQVNEPYAPVLAEKQIPVFYIAVAIAAAIVSLLLGKFFL
For B2, the binding entry in test [3] is reported as “binds”.
